# Patent US20230302135A1 (ARIZONA BOARD OF REGENTS ON BEHALF OF THE UNIVERSITY OF …, published 2023)
# Biological target: T1, FITC-labeled recombinant human SDF-1 (human, UniProt P48061-2 22-89, limits assumed, FITC label (FluoReporter FITC Protein Labeling Kit); labelled residues not stated)
# T1 construct: Bought from PeproTech and labelled with FITC; also called FITC-SDF-1; FITC-conjugated SDF-1
# Experiment: fluorescence microscopy of transfected hMSCs incubated with FITC-labeled SDF-1
# Experimental: The labeling protocol was performed by the manufacturer's instructions.
row,binding result,Binder
1,binds,hCXCR4/Blank-HAR (receptor) MEGISIYTSDNYTEEMGSGDYDSMKEPCFREENANFNKIFLPTIYSTTTPAPRPPTPAPTIASQPLSLRPEACRPAAGGAVHTRGLDFACDIYIWAPLAGTCGVLLLSLVITLYC
2,binds,"hCXCR4/BMP2Rs-HAR (receptor, Expressed on transfected human bone marrow MSCs; also called HAR-MSC CXCR4; HAR (CXCR4-BMP2RII/ALK3)) MEGISIYTSDNYTEEMGSGDYDSMKEPCFREENANFNKIFLPTIYSTTTPAPRPPTPAPTIASQPLSLRPEACRPAAGGAVHTRGLDFACDIYIWAPLAGTCGVLLLSLVITLYCKLLELIGRGRYGAVYKGSLDERPVAVKVFSFANRQNFINEKNIYRVPLMEHDNIARFIVGDERVTADGRMEYLLVMEYYPNGSLCKYLSLHTSDWVSSCRLAHSVTRGLAYLHTELPRGDHYKPAISHRDLNSRNVLVKNDGTCVISDFGLSMRLTGNRLVRPGEEDNAAISEVGTIRYMAPEVLEGAVNLRDCESALKQVDMYALGLIYWEIFMRCTDLFPGESVPEYQMAFQTEVGNHPTFEDMQVLVSREKQRPKFPEAWKENSLAVRSLKETIEDCWDQDAEARLTAQCAEERMAELGGGSGGGSGGGSRTIAKQIQMVRQVGKGRYGEVWMGKWRGEKVAVKVFFTTEEASWFRETEIYQTVLMRHENILGFIAADIKGTGSWTQLYLITDYHENGSLYDFLKCATLDTRALLKLAYSAACGLCHLHTEIYGTQGKPAIAHRDLKSKNILIKKNGSCCIADLGLAVKFNSDTNEVDVPLNTRVGTKRYMAPEVLDESLNKNHFQPYIMADIYSFGLIIWEMARRCITGGIVEEYQLPYYNMVPSDPSYEDMREVVCVKRLRPIVSNRWNSDECLRAVLKLMSECWAHNPASRLTALRIKKTLAKMVESQDVKI"
